{"source": "PubChem BioAssay AID1224828 (NIAID, 2016)", "test": "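Knock-downs that increase or decrease LPS-induced p65 nuclear translocation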 (primary screen)", "cells": "mouse RAW264.7 G9 macrophage reporter cells (GFP-p65, Tnf promoter-mCherry)", "knock-down reagent": "siRNA pool against mouse genes, 100 nM", "time to read-out": "2 days siRNA transfection, then 40 min LPS before fixation", "conditions": "LPS (Salmonella minnesota R595) at 10 ng/ml", "measured": "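Imaged p65 nuclear translocation ratio, normalised to the plate median, converted to robust z-scores and averaged across two replicates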", "reading the numbers": "p65 translocation robust z-score: higher = more nuclear NF-kappaB p65 after LPS than the plate median; nuclear/cytoplasmic p65 ratio: higher = more nuclear NF-kappaB p65", "rule for the call": "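Called active when z exceeds 3.3 or falls under -1.56 (median of Tlr4 controls), giving activity score of at least 50; no calls for control wells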", "meaning of the calls": "active = hit (p65 shift raised or lowered); inactive = no clear change", "note": "The deposit covers about 17,000 reagents; shown is a random part of them. In the full data, 762 (4.5%) were called active. 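Active calls include both raised and lowered p65 entry, mostly lowered; wells with fewer than 50 cells lack a z-score.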 Raw values are not corrected between plates. Reagents against one gene are numbered here."}
{"Target gene":"Dhx29","pool no.":1,"p65 translocation robust z-score":0.31,"nuclear/cytoplasmic p65 ratio, rep 1":1.58,"nuclear/cytoplasmic p65 ratio, rep 2":1.63,"low cell count flag":"enough cells to score","outcome":"inactive"}
{"Target gene":"Apol10a","pool no.":1,"p65 translocation robust z-score":0.18,"nuclear/cytoplasmic p65 ratio, rep 1":1.67,"nuclear/cytoplasmic p65 ratio, rep 2":1.61,"low cell count flag":"enough cells to score","outcome":"inactive"}
{"Target gene":"Ostf1","pool no.":1,"p65 translocation robust z-score":0.69,"nuclear/cytoplasmic p65 ratio, rep 1":1.6,"nuclear/cytoplasmic p65 ratio, rep 2":1.45,"low cell count flag":"enough cells to score","outcome":"inactive"}
{"Target gene":"Alx1","pool no.":1,"p65 translocation robust z-score":-0.15,"nuclear/cytoplasmic p65 ratio, rep 1":1.55,"nuclear/cytoplasmic p65 ratio, rep 2":1.63,"low cell count flag":"enough cells to score","outcome":"inactive"}
{"Target gene":"Rgs9","pool no.":1,"p65 translocation robust z-score":-1.51,"nuclear/cytoplasmic p65 ratio, rep 1":1.3,"nuclear/cytoplasmic p65 ratio, rep 2":1.24,"low cell count flag":"enough cells to score","outcome":"inactive"}
{"Target gene":"Usb1","pool no.":1,"p65 translocation robust z-score":0.27,"nuclear/cytoplasmic p65 ratio, rep 1":1.43,"nuclear/cytoplasmic p65 ratio, rep 2":1.55,"low cell count flag":"enough cells to score","outcome":"inactive"}
{"Target gene":"Dennd1b","pool no.":1,"nuclear/cytoplasmic p65 ratio, rep 1":1.36,"nuclear/cytoplasmic p65 ratio, rep 2":1.27,"low cell count flag":"fewer than 50 cells per well; well left out of scoring","outcome":"inactive"}
{"Target gene":"Cma2","pool no.":1,"p65 translocation robust z-score":0.41,"nuclear/cytoplasmic p65 ratio, rep 1":1.79,"nuclear/cytoplasmic p65 ratio, rep 2":1.71,"low cell count flag":"enough cells to score","outcome":"inactive"}
{"Target gene":"Cpt1b","pool no.":1,"p65 translocation robust z-score":-2.63,"nuclear/cytoplasmic p65 ratio, rep 1":1.22,"nuclear/cytoplasmic p65 ratio, rep 2":1.31,"low cell count flag":"enough cells to score","outcome":"active"}
{"Target gene":"Taf4","pool no.":1,"p65 translocation robust z-score":-0.55,"nuclear/cytoplasmic p65 ratio, rep 1":1.49,"nuclear/cytoplasmic p65 ratio, rep 2":1.39,"low cell count flag":"enough cells to score","outcome":"inactive"}
{"Target gene":"Tmem121","pool no.":1,"p65 translocation robust z-score":-1.12,"nuclear/cytoplasmic p65 ratio, rep 1":1.39,"nuclear/cytoplasmic p65 ratio, rep 2":1.31,"low cell count flag":"enough cells to score","outcome":"inactive"}

Sorted by “nuclear/cytoplasmic p65 ratio, rep 2” (ascending): some entries from above.
{"Target gene":"Dennd1b","pool no.":1,"nuclear/cytoplasmic p65 ratio, rep 1":1.36,"nuclear/cytoplasmic p65 ratio, rep 2":1.27,"low cell count flag":"fewer than 50 cells per well; well left out of scoring","outcome":"inactive"}
{"Target gene":"Cpt1b","pool no.":1,"p65 translocation robust z-score":-2.63,"nuclear/cytoplasmic p65 ratio, rep 1":1.22,"nuclear/cytoplasmic p65 ratio, rep 2":1.31,"low cell count flag":"enough cells to score","outcome":"active"}
{"Target gene":"Taf4","pool no.":1,"p65 translocation robust z-score":-0.55,"nuclear/cytoplasmic p65 ratio, rep 1":1.49,"nuclear/cytoplasmic p65 ratio, rep 2":1.39,"low cell count flag":"enough cells to score","outcome":"inactive"}
{"Target gene":"Cma2","pool no.":1,"p65 translocation robust z-score":0.41,"nuclear/cytoplasmic p65 ratio, rep 1":1.79,"nuclear/cytoplasmic p65 ratio, rep 2":1.71,"low cell count flag":"enough cells to score","outcome":"inactive"}

The results go on:
{"Target gene":"Gm38404","pool no.":1,"p65 translocation robust z-score":0.1,"nuclear/cytoplasmic p65 ratio, rep 1":1.56,"nuclear/cytoplasmic p65 ratio, rep 2":1.83,"low cell count flag":"enough cells to score","outcome":"inactive"}
{"Target gene":"Zfp334","pool no.":1,"p65 translocation robust z-score":-0.23,"nuclear/cytoplasmic p65 ratio, rep 1":1.36,"nuclear/cytoplasmic p65 ratio, rep 2":1.24,"low cell count flag":"enough cells to score","outcome":"inactive"}
{"Target gene":"Cntn6","pool no.":1,"p65 translocation robust z-score":0.48,"nuclear/cytoplasmic p65 ratio, rep 1":1.66,"nuclear/cytoplasmic p65 ratio, rep 2":1.32,"low cell count flag":"enough cells to score","outcome":"inactive"}
{"Target gene":"Rasal2","pool no.":1,"p65 translocation robust z-score":-1.07,"nuclear/cytoplasmic p65 ratio, rep 1":1.43,"nuclear/cytoplasmic p65 ratio, rep 2":1.47,"low cell count flag":"enough cells to score","outcome":"inactive"}
{"Target gene":"Rasal2","pool no.":2,"p65 translocation robust z-score":0.64,"nuclear/cytoplasmic p65 ratio, rep 1":1.46,"nuclear/cytoplasmic p65 ratio, rep 2":1.69,"low cell count flag":"enough cells to score","outcome":"inactive"}
{"Target gene":"Kcnf1","pool no.":1,"p65 translocation robust z-score":0.59,"nuclear/cytoplasmic p65 ratio, rep 1":1.49,"nuclear/cytoplasmic p65 ratio, rep 2":1.51,"low cell count flag":"enough cells to score","outcome":"inactive"}
{"Target gene":"Pepf","pool no.":1,"p65 translocation robust z-score":-1.42,"nuclear/cytoplasmic p65 ratio, rep 1":1.23,"nuclear/cytoplasmic p65 ratio, rep 2":1.09,"low cell count flag":"enough cells to score","outcome":"inactive"}
{"Target gene":"Arl8b","pool no.":1,"p65 translocation robust z-score":2.05,"nuclear/cytoplasmic p65 ratio, rep 1":1.82,"nuclear/cytoplasmic p65 ratio, rep 2":1.89,"low cell count flag":"enough cells to score","outcome":"inactive"}
{"Target gene":"Il18rap","pool no.":1,"p65 translocation robust z-score":0.66,"nuclear/cytoplasmic p65 ratio, rep 1":1.61,"nuclear/cytoplasmic p65 ratio, rep 2":1.43,"low cell count flag":"enough cells to score","outcome":"inactive"}
{"Target gene":"Rnf121","pool no.":1,"p65 translocation robust z-score":-0.05,"nuclear/cytoplasmic p65 ratio, rep 1":1.41,"nuclear/cytoplasmic p65 ratio, rep 2":1.1,"low cell count flag":"enough cells to score","outcome":"inactive"}
{"Target gene":"Cib1","pool no.":1,"p65 translocation robust z-score":-0.65,"nuclear/cytoplasmic p65 ratio, rep 1":1.61,"nuclear/cytoplasmic p65 ratio, rep 2":1.3,"low cell count flag":"enough cells to score","outcome":"inactive"}
{"Target gene":"Gpr34","pool no.":1,"p65 translocation robust z-score":-0.35,"nuclear/cytoplasmic p65 ratio, rep 1":1.43,"nuclear/cytoplasmic p65 ratio, rep 2":1.56,"low cell count flag":"enough cells to score","outcome":"inactive"}
{"Target gene":"Tcf21","pool no.":1,"p65 translocation robust z-score":-2.27,"nuclear/cytoplasmic p65 ratio, rep 1":1.19,"nuclear/cytoplasmic p65 ratio, rep 2":1.21,"low cell count flag":"enough cells to score","outcome":"active"}
{"Target gene":"Trps1","pool no.":1,"p65 translocation robust z-score":-1.08,"nuclear/cytoplasmic p65 ratio, rep 1":1.35,"nuclear/cytoplasmic p65 ratio, rep 2":1.36,"low cell count flag":"enough cells to score","outcome":"inactive"}
{"Target gene":"2010204K13Rik","pool no.":1,"nuclear/cytoplasmic p65 ratio, rep 1":1.6,"nuclear/cytoplasmic p65 ratio, rep 2":1.46,"low cell count flag":"fewer than 50 cells per well; well left out of scoring","outcome":"inactive"}
{"Target gene":"Agtrap","pool no.":1,"p65 translocation robust z-score":-0.98,"nuclear/cytoplasmic p65 ratio, rep 1":1.46,"nuclear/cytoplasmic p65 ratio, rep 2":1.48,"low cell count flag":"enough cells to score","outcome":"inactive"}
